Source: patent US20160375113A1, “COMPOSITIONS COMPRISING ENO1 AND THEIR USE IN METHODS OF TREATING OBESITY OR OVERWEIGHT AND REDUCING WEIGHT GAIN” (Berg LLC, priority 2015, published 2016)
At least one compound was matched to its structure with a doubt left.

Test system: db/db mice
Experiment: Body weight / weight gain in db/db mice treated with rosiglitazone and muscle targeted Eno1/dendrimer complex
Assay type: in vivo
Protocol: A muscle targeted Eno1/dendrimer complex was generated to analyze its efficacy in reducing weight gain. The dendrimer complex comprised human Eno1, transcript variant 1 protein (SEQ ID NO: 2) which was non-covalently linked to a G5-PAMAM dendrimer/muscle targeting peptide (MTP) (ASSLNIA; SEQ ID NO: 7) conjugate. Stock solutions of Eno1 were prepared in buffer and the protein solution was mixed with the G5 dendrimer-MTP conjugate.
Lean mice and male obese and diabetic db/db mice (male BKS.Cg-m+/+Lepr^db/J) mice were obtained from a commercial vendor. All mice were housed 2-3 per cage at 22° C. on a 12:12 hr day-night cycle and were acclimated for 3 weeks at animal facility on a standard chow diet. At 8 weeks of age, 200 μg/kg body weight Eno1 was administered twice daily (at 9:00 a.m. and 5:00 p.m., 400 μg/kg daily dose) by subcutaneous injection, and 20 mg/kg body weight rosiglitazone was administered once daily by gavage at 9:00 a.m. Lean mice and db/db mice also received subcutaneous injections of saline as a control. The treatment groups were as follows: • 1. lean mice with saline injection (control) • 2. db/db mice with saline injection (control) • 3. db/db mice with rosiglitazone (20 mg/kg, once daily) • 4. db/db mice with rosiglitazone (20 mg/kg, once daily)+Eno1 (200 μg/kg, twice daily) […]

Structure (SMILES): CN(CCOc1ccc(CC2SC(=O)NC2=O)cc1)c1ccccn1 (centres unmarked) [rosiglitazone, reference compound]
- body weight compared to control (saline treated) db/db mice (rosiglitazone 20 mg/kg once daily by gavage, Eno1 200 μg/kg twice daily subcutaneous, weighed daily (FIG. 1)): increased body weight
- gained body weight compared to control (saline treated) db/db mice (rosiglitazone 20 mg/kg/day, Eno1 400 μg/kg/day (FIG. 2)): gained more body weight
